# Percent effect of library compounds

From ChEMBL document CHEMBL3988442, “University of Dundee, Small-Polar-MMV Screening Library” (2021).

Toxoplasma: 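Assay of Toxoplasma gondii numbers, read through their beta-galactosidase reporter with a colour substrate. Compounds at 10 µM. The record gives no direction; the compounds picked for IC50 retests had high values, so higher reads as fewer parasites. About 67,000 compounds were tested under these conditions; 0.38% (about 260) showed 50% or more at least once.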
T. brucei: 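Whole-parasite assay of Trypanosoma brucei over 72 hours; the read-out is not stated. Concentration: 30 µM. Direction is inferred from retests: higher values go with stronger inhibition. Values scatter widely below zero; nearly all retest evidence comes from the higher of the two concentrations used. Size under these conditions: about 64,000 compounds, about 940 of them at 50% or above in at least one test.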

Each number is a percent effect as filed.
How 0% and 100% were set is not recorded. Most values in the screen are low, and negative values occur.
The compounds are a random part of those screened.
A dash means the value is not listed here; it may have been measured.

SMILES | Toxoplasma | T. brucei
O=C(NCC1CCCN(C(=O)NCCc2ccccc2)C1)c1ccco1 (stereo not shown) | 13.76% | 15.56%
Cc1cnn(CC(C)NCc2ccc(S(C)(=O)=O)cc2)c1 (stereo not shown) | 0.05624% | 20.35%
Nc1ncnc2nc(C3CCN(C(=O)Cc4ccc(F)cc4)C3)ccc12 (stereo not shown) | 13.51% | 1.289%
Cc1cnn(CCNCC(=O)Nc2ccc(Br)cn2)c1 | -8.228% | -32.51%
CC1=Nc2c(c(=O)[nH]n2C2CCOCC2)C(c2cccc(Br)c2)S1 (stereo not shown) | 10.76% | 12.28%
O=C(O)C(F)(F)F.O=C(c1ccco1)N1CCOC2(COCCN(c3ncccn3)C2)C1 (stereo not shown) | 9.36% | -18.44%
COCCCSc1ccc(NCc2cscn2)cc1 | 2.481% | 25.19%
Cc1ncncc1C(=O)N1CCOC(C)(C(=O)NC2CCCC2)C1 (stereo not shown) | -15.54% | -16.85%
CCN1CCC(N[C@@H]2CC[C@@H]2NC(=O)Cc2csc(C)n2)CC1 | -12.55% | -4.99%
COCC1CN(Cc2cccnc2OC)Cc2cnn(C)c21 (stereo not shown) | 2.483% | -27.44%
CCn1cc(NC(=O)CN2C(=O)CC(C)(C)c3ccccc32)cn1 | -36.6% | -29.59%
N#CCC(=O)NCc1nnc2n1CCN(Cc1nccs1)C2 | -0.5851% | -29.05%
CN(C)C(=O)N1CCOCC2(CCN(c3ncccn3)C2)C1.O=C(O)C(F)(F)F (stereo not shown) | 11% | 14.06%
COCC1Cn2nnc(-c3cnn(C)c3)c2CN1Cc1cccs1.O=C(O)C(F)(F)F (stereo not shown) | 15.52% | -12.88%
CCc1noc(C(C)N2CCN(c3ccc(C#N)cn3)CC2)n1 (stereo not shown) | 0.05028% | -29.62%
Cc1cc(N(C)C)nc(N2CCN(C(C)c3nc(C)no3)CC2)n1 (stereo not shown) | -43.04% | -22.8%
O=C1CCCN1Cc1nnc(SCc2ccc3c(c2)CCC3)o1 | 2.558% | 47.68%
Cc1cs/c(=N\C(=O)Cn2nc(N3CCC(C)CC3)ccc2=O)[nH]1 | 11.22% | 33.1%
CC(C)c1ncc(CN2CCC(O)(c3ccccc3F)CC2)cn1 | 8.115% | 14.99%
O=S1(=O)CCC(N2CCN(c3cc(C(F)(F)F)ccn3)CC2)C1 (stereo not shown) | -2.681% | -44.76%
CC(C(=O)N1CCN(c2ccccc2Cl)CC1)n1cncn1 (stereo not shown) | -2.193% | 18.28%
CCC(CC)(CNC(C)=O)NC(C)c1ccccc1 (stereo not shown) | -3.21% | -3.834%
Cc1ccc(CN(CCCn2ccnc2)Cc2cnn(C)c2)s1.O=C(O)CC(O)(CC(=O)O)C(=O)O | -58.36% | -61.1%
CC(C)(C)CC(=O)NCC(=O)Nc1ccn(CCCn2ccnc2)n1 | -19.01% | -10.86%
O=C(O)C(F)(F)F.O=C(O)C(F)(F)F.[H][C@@]12COC[C@]1(C(=O)NCc1ccccn1)CN(C1CCC1)C2 | 0.8547% | 33.21%
CCS(=O)(=O)N1CCOC2(CCCN(c3ncc(F)cn3)C2)C1 (stereo not shown) | -14.17% | -35.99%
Cc1ccnc(NC(=O)CCc2cnn(C)c2C)c1 | 4.263% | -37.21%
O=C(CN1CCOC(c2ccccc2C(F)(F)F)C1)NC1CC1 (stereo not shown) | 0.9091% | 2.284%
COc1ncccc1CN1CCC2(CC1)CN(c1ccccn1)CCO2.O=C(O)C(F)(F)F.O=C(O)C(F)(F)F.O=C(O)C(F)(F)F | 3.677% | -36.6%
CN(C)C(=O)C1CN(c2ccncn2)CCN(C2CCOCC2)C1 (stereo not shown) | 11.93% | -2.581%
Cc1cc(-c2nn(C)c(Cl)c2CN2CC[C@H](CO)[C@@H](O)C2)no1 | -0.6747% | -24.17%
Cn1c(CN2CCCC2)nnc1C1CCCN(C(=O)CN2CCCC2)C1 (stereo not shown) | -6.222% | -8.415%
COc1ccc(C2CCCN2S(=O)(=O)c2cc(F)ccc2F)cc1 (stereo not shown) | 0.5445% | -26.1%
Cc1nccn1C1(C(=O)O)CCN(Cc2ccc3occc3c2)CC1 | 4.388% | -9.296%
CCN(CC)Cc1ccc(C(=O)N2CCCC2Cn2cccn2)o1 (stereo not shown) | 11.81% | -
CN(CCCc1nccn1C)C(=O)C1COc2ccccc2C1 (stereo not shown) | 3.977% | 2.84%
CCSCCC(=O)NS(=O)(=O)c1ccc2c(c1)OCCO2 | -12.26% | -16.83%
Cc1noc(C)c1C(=O)N1CCC2(CC1)c1nc[nH]c1CCN2C | -2.19% | -17.74%
CC(C)OCCN1CCN(c2ccc(Cl)cn2)CC1 | -1.702% | 5.716%
CCC(C(=O)N(C)Cc1cc(C2CC2)[nH]n1)n1cccn1 (stereo not shown) | -2.143% | 8.945%
O=C(c1cccnc1-n1cncn1)N1CCC(Nc2ccccc2)CC1 | -1.264% | -33.16%
Cn1cnc2cc(C(=O)N3CCC(c4ccccc4C(=O)O)C3)cnc21 (stereo not shown) | -12.05% | -
Cc1ccc(CNC(=O)c2ccc(=O)n(C)n2)c(OC2CCCC2)c1 | 9.955% | -54.87%
NC(=O)CN1CCCN(C(=O)c2ccn(-c3ccccc3)n2)CC1 | -12.1% | -3.616%
Cc1cc(C)nc(NC2CC(=O)N(C(C)(C)C)C2)n1 (stereo not shown) | -0.2363% | -21.51%
[H][C@@]12COC[C@]1(C(=O)NCCOC)CN(C1CCOCC1)C2 | -18.16% | -66.78%
Cn1nc2c(c1NC(=O)c1ccc(Cl)s1)CCC2 | -5.582% | 0.529%
COc1ccc2c(c1)OCC(CNC(=O)c1ccc3[nH]nnc3c1)C2 (stereo not shown) | 1.48% | 16.16%
[H][C@]12CC[C@]([H])(CN(c3ncccn3)C1)N(C(=O)CCOCC)C2 | 6.122% | 4.217%
Cc1ccc(C)c2c(O)cc(CN3CCNC(=O)C3C)nc12 (stereo not shown) | 2.451% | -8.721%
CCNC(=O)[C@@H]1C[C@H](N)CN1C(=O)c1c[nH]c2ccccc12 | -22.03% | -39.66%
CCC(C)(CC(=O)OC)NC(=O)c1ccc2[nH]ccc2c1 (stereo not shown) | 0.2072% | -40.79%
CC(C)COC(C)C(=O)NCc1cc(F)cc(F)c1 (stereo not shown) | -4.076% | 17.6%
CN1CCN(C(=O)c2cnc3c(cnn3C3CCCC3)c2)CC1 | - | 17.95%
Cc1cn2c(n1)CCC(NC(=O)c1[nH]nc(C)c1Br)C2 (stereo not shown) | -6.65% | -1.009%
O=C(O)C(F)(F)F.O=C(O)C(F)(F)F.[H][C@@]12CN(Cc3ccco3)C[C@]1([H])[C@H](OC)CCN2Cc1cnn(C)c1 | 7.651% | 28.62%
Cc1cc(NC(=O)NC(C)(C)c2nc(C)c(C)s2)no1 | -0.4528% | -6.395%
Cc1ccc(F)cc1S(=O)(=O)N(C)CC(N)=O | 2.148% | -35.07%
O=C(c1ccc(F)cc1Cl)N1CCC(Nc2cccnn2)CC1 | -0.6674% | 5.502%
Cn1ccc(C(=O)NC2CCN(c3ncccn3)CC2)cc1=O | 25.45% | 5.545%
O=C(c1cnc(-c2ncccn2)s1)N1CCCC1Cn1cccn1 (stereo not shown) | 16.55% | 7.378%
O=C(O)c1nnn(-c2cc(F)cc(F)c2)c1-c1ccncc1 | 19.25% | -66.97%
CCc1cnc2c(c1Nc1ccccc1OC)c(=O)n(C)c(=O)n2C | 9.581% | -4.668%
CN(Cc1ccccc1)CC1CC2(CO1)CN(Cc1cnn(C)c1)C2 (stereo not shown) | -1.354% | -21.77%
O=C(O)C(F)(F)F.[H][C@]12CCC[C@@]1(COc1ccccn1)CN(C(=O)c1cocn1)C2 | 4.34% | 45.29%
Cc1cc(C)nc(N2CCC(c3c(C(N)=O)sc4ccccc34)C2)n1 (stereo not shown) | -11.69% | 11.94%
Cc1nc2c(c(C)c1CC(=O)NCc1cccc(C#N)c1)c(=O)[nH]n2C | -5.257% | -17.67%
CN(Cc1ccccc1F)C(=O)COC(=O)c1cc(Cl)c[nH]1 | - | -38.02%
Cc1cccc(-c2nc(C)nn2CN2CCN(S(C)(=O)=O)CC2)c1 | 1.193% | -48.76%
O=C(NCC1CCCO1)c1c(-n2cnnn2)sc2c1CCC2 (stereo not shown) | 3.57% | 13.68%
O=C1CCCN1CCc1noc(-c2ccsc2)n1 | -0.9489% | -20.03%
Cc1ccc(CN2Cc3nccn3CC(CN(C)C)C2)s1.O=C(O)C(F)(F)F.O=C(O)C(F)(F)F (stereo not shown) | -8.294% | 16.34%
O=C(c1ccc(=O)[nH]n1)N1CCCC1CCc1ccccc1 (stereo not shown) | 1.947% | 9.703%
Cn1cc(CN2CC3(CCN(C(=O)c4cscn4)C3)C2)cn1 | 9.329% | 19.13%
O=C(O)C(F)(F)F.[H][C@@]12CN(Cc3ccoc3)C[C@H](C(=O)N3CCCCO3)[C@]1([H])CCO2 | 1.232% | 20.02%
Cc1cc(CN2CCN(C(=O)C(C(C)C)n3cncn3)CC2)no1 (stereo not shown) | 5.681% | 2.4%
Cc1ccc(-c2nc(CN3CCn4c(nnc4C4CC4)C3)no2)cc1 | 4.661% | -18%

5 of the entries, repeated:

* Cc1ccc(C)c2c(O)cc(CN3CCNC(=O)C3C)nc12 (stereo not shown) : Toxoplasma: 2.451%; T. brucei: -8.721%
* Cc1cnn(CC(C)NCc2ccc(S(C)(=O)=O)cc2)c1 (stereo not shown) : Toxoplasma: 0.05624%; T. brucei: 20.35%
* CC1=Nc2c(c(=O)[nH]n2C2CCOCC2)C(c2cccc(Br)c2)S1 (stereo not shown) : Toxoplasma: 10.76%; T. brucei: 12.28%
* Cc1cs/c(=N\C(=O)Cn2nc(N3CCC(C)CC3)ccc2=O)[nH]1 : Toxoplasma: 11.22%; T. brucei: 33.1%
* Cc1cc(C)nc(N2CCC(c3c(C(N)=O)sc4ccccc34)C2)n1 (stereo not shown) : Toxoplasma: -11.69%; T. brucei: 11.94%